From the supplement of paper PMC7661543
± gives the standard deviation of the averaged measurements. The effect of the compound repeats well; differences between the knockouts mostly do not.

Test system: SKBR3
Test: relative cell number vs DMSO control (72 h) (% of DMSO); higher = less growth inhibition (more cells)
Experimental: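 QMAP-Seq: a pool of 5 breast cancer cell lines (ZR-75-1, SKBR3, HCC-38, MDA-MB-231, BT-20), each carrying 12 doxycycline-inducible Cas9 sgRNA perturbations (11 knockouts plus non-targeting sgNT), was treated with compounds for 72 h at four 10-fold doses (10 nM-10 uM or 1 nM-1 uM range). Barcodes were amplified and sequenced, and cell number was interpolated from 293T spike-in standard curves. The result is expressed as % of the median of DMSO wells. Two biological replicates.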

CC(C)(C#N)c1ccc(N2C(=O)OCc3cnc4ccc(-c5cnc6ccccc6c5)cc4c32)cc1
Conditions	relative cell number
sgRNA knockout: sgATF3, 10 nM	89 ± 37
sgRNA knockout: sgATF3, 100 nM	90.5 ± 14
sgRNA knockout: sgATF3, 1000 nM	69.4 ± 21
sgRNA knockout: sgATF3, 10000 nM	43 ± 13
sgRNA knockout: sgATF4, 10 nM	89.8 ± 15
sgRNA knockout: sgATF4, 100 nM	102 ± 2
sgRNA knockout: sgATF4, 1000 nM	79.6 ± 3
sgRNA knockout: sgATF4, 10000 nM	42.8 ± 10
sgRNA knockout: sgATF6, 10 nM	77.3 ± 28
sgRNA knockout: sgATF6, 100 nM	120 ± 13
sgRNA knockout: sgATF6, 1000 nM	76.6 ± 3.8
sgRNA knockout: sgATF6, 10000 nM	44.9 ± 18
sgRNA knockout: sgATG7, 10 nM	103 ± 2.6
sgRNA knockout: sgATG7, 100 nM	83.9 ± 17
sgRNA knockout: sgATG7, 1000 nM	66.5 ± 18
sgRNA knockout: sgATG7, 10000 nM	49 ± 14
sgRNA knockout: sgERN1, 10 nM	88.5 ± 5.8
sgRNA knockout: sgERN1, 100 nM	98.1 ± 15
sgRNA knockout: sgERN1, 1000 nM	78.7 ± 14
sgRNA knockout: sgERN1, 10000 nM	37.4 ± 2.1
sgRNA knockout: sgHSF1, 10 nM	90.2 ± 35
sgRNA knockout: sgHSF1, 100 nM	104 ± 3.6
sgRNA knockout: sgHSF1, 1000 nM	86.2 ± 6.1
sgRNA knockout: sgHSF1, 10000 nM	35.2 ± 11
sgRNA knockout: sgHSF2, 10 nM	96.8 ± 7.9
sgRNA knockout: sgHSF2, 100 nM	97 ± 19
sgRNA knockout: sgHSF2, 1000 nM	87.4 ± 12
sgRNA knockout: sgHSF2, 10000 nM	42 ± 3.8
sgRNA knockout: sgKEAP1, 10 nM	88.7 ± 27
sgRNA knockout: sgKEAP1, 100 nM	82.1 ± 25
sgRNA knockout: sgKEAP1, 1000 nM	70.3 ± 7.1
sgRNA knockout: sgKEAP1, 10000 nM	41 ± 5
sgRNA knockout: sgNFE2L2, 10 nM	128 ± 29
sgRNA knockout: sgNFE2L2, 100 nM	90.7 ± 11
sgRNA knockout: sgNFE2L2, 1000 nM	67.3 ± 4.1
sgRNA knockout: sgNFE2L2, 10000 nM	30.2 ± 11
sgRNA knockout: sgSLC35F2, 10 nM	95 ± 59
sgRNA knockout: sgSLC35F2, 100 nM	97.2 ± 2.7
sgRNA knockout: sgSLC35F2, 1000 nM	74.56 ± 0.64
sgRNA knockout: sgSLC35F2, 10000 nM	44.4 ± 16
sgRNA knockout: sgXBP1, 10 nM	115 ± 49
sgRNA knockout: sgXBP1, 100 nM	113 ± 10
sgRNA knockout: sgXBP1, 1000 nM	75.1 ± 16
sgRNA knockout: sgXBP1, 10000 nM	37.2 ± 8.5

COc1cc2nc(N3CCCN(C)CC3)nc(NC3CCN(Cc4ccccc4)CC3)c2cc1OC
Conditions	relative cell number
sgRNA knockout: sgATF3, 10 nM	97.1 ± 5.5
sgRNA knockout: sgATF3, 100 nM	124 ± 16
sgRNA knockout: sgATF3, 1000 nM	82 ± 1.4
sgRNA knockout: sgATF3, 10000 nM	2.96 ± 2.1
sgRNA knockout: sgATF4, 10 nM	102 ± 11
sgRNA knockout: sgATF4, 100 nM	98.2 ± 39
sgRNA knockout: sgATF4, 1000 nM	84.4 ± 0.94
sgRNA knockout: sgATF4, 10000 nM	4.12 ± 2.7
sgRNA knockout: sgATF6, 10 nM	85.7 ± 9.4
sgRNA knockout: sgATF6, 100 nM	89.9 ± 14
sgRNA knockout: sgATF6, 1000 nM	95.8 ± 3.5
sgRNA knockout: sgATF6, 10000 nM	4.8 ± 3.8
sgRNA knockout: sgATG7, 10 nM	82.9 ± 23
sgRNA knockout: sgATG7, 100 nM	105 ± 9.8
sgRNA knockout: sgATG7, 1000 nM	75.1 ± 22
sgRNA knockout: sgATG7, 10000 nM	4.07 ± 3.4
sgRNA knockout: sgERN1, 10 nM	86.8 ± 18
sgRNA knockout: sgERN1, 100 nM	97.6 ± 15
sgRNA knockout: sgERN1, 1000 nM	102 ± 16
sgRNA knockout: sgERN1, 10000 nM	6.09 ± 4.3
sgRNA knockout: sgHSF1, 10 nM	97.6 ± 20
sgRNA knockout: sgHSF1, 100 nM	114 ± 17
sgRNA knockout: sgHSF1, 1000 nM	89.4 ± 10
sgRNA knockout: sgHSF1, 10000 nM	3.64 ± 0.76
sgRNA knockout: sgHSF2, 10 nM	95.25 ± 0.5
sgRNA knockout: sgHSF2, 100 nM	97.7 ± 15
sgRNA knockout: sgHSF2, 1000 nM	72.5 ± 8.1
sgRNA knockout: sgHSF2, 10000 nM	4.13 ± 3.1
sgRNA knockout: sgKEAP1, 10 nM	105 ± 8.4
sgRNA knockout: sgKEAP1, 100 nM	82.3 ± 16
sgRNA knockout: sgKEAP1, 1000 nM	80.9 ± 16
sgRNA knockout: sgKEAP1, 10000 nM	3.76 ± 1.6
sgRNA knockout: sgNFE2L2, 10 nM	107 ± 14
sgRNA knockout: sgNFE2L2, 100 nM	95.8 ± 20
sgRNA knockout: sgNFE2L2, 1000 nM	90.6 ± 6.9
sgRNA knockout: sgNFE2L2, 10000 nM	4.97 ± 4.4
sgRNA knockout: sgSLC35F2, 10 nM	84.1 ± 7.2
sgRNA knockout: sgSLC35F2, 100 nM	91.8 ± 10
sgRNA knockout: sgSLC35F2, 1000 nM	77.3 ± 4.6
sgRNA knockout: sgSLC35F2, 10000 nM	2.52 ± 1.9
sgRNA knockout: sgXBP1, 10 nM	92.9 ± 11
sgRNA knockout: sgXBP1, 100 nM	109.1 ± 0.64
sgRNA knockout: sgXBP1, 1000 nM	97.7 ± 9.9
sgRNA knockout: sgXBP1, 10000 nM	2.61 ± 1.7
